We go through 86 sequences from the supplement of paper PMC3334620.

Whole data set: some 33,000 sequences, median “E-score (-0.5 to 0.5)” near -0.0059, cut for the highest 2% near 0.26. This is one part of the list.

In this test the target is T1, Cin5 (UniProt P40917).
T1 sequence: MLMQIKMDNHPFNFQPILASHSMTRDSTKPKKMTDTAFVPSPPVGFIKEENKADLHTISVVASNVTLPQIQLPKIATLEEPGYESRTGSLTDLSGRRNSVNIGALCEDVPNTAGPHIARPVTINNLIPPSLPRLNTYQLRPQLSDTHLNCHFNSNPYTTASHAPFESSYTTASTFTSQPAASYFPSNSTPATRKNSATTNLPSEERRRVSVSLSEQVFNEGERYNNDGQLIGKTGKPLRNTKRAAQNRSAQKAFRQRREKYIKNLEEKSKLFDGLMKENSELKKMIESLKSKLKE
Description: PBM E-score (8-mer binding enrichment) (E-score (-0.5 to 0.5)); higher = stronger / more preferred TF binding. The note with it: protein concentration: 100 nM; construct: GST-full length. In short, it runs like this:
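GST-tagged yeast TFs (full-length or DNA-binding domain) were made by PURExpress in vitro transcription/translation and applied at about 100-200 nM to universal all-10-mer Agilent arrays. The arrays were made double-stranded by primer extension, on fresh or once-stripped slides. Bound protein was detected with fluorescent anti-GST, and scans were normalised with masliner. Each ungapped eight-base word, pooled with its reverse complement, received an E-score (modified Wilcoxon-Mann-Whitney statistic) from the Universal PBM Analysis Suite.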
Consider ACGCGTAA, for which the “PBM E-score” value turned out to be 0.086.

As to AGGCTCAA, the “PBM E-score” value is -0.0732. To TAGAGCGA belongs -0.0129. Turning to TACGCCTA, the “PBM E-score” value was -0.0912. For AGAGTTTG the value was 0.0211; for GGGTGTCA, -0.0995; for CGGCAACA, 0.132.

AATAATGC: the “PBM E-score” value worked out at 0.145.

Take CCCCGACC: the “PBM E-score” value was -0.1. For AAACCTGC the value was 0.0414; for CGTCACCA, -0.00244; for TACGAAAA, 0.00792. For ACTAAAAC the value was 0.0962; for AGCTGTCC, -0.148; for ACGTTTCG, -0.0249.

For the sequence ACAGATAT, the “PBM E-score” value was 0.141. To AAACTAAG belongs 0.185; to CATCAAAA, 0.175. As for GAATAGGA, the “PBM E-score” value was determined as 0.108. To ATCATCAT belongs 0.187.

On to GTTCGCCA, for which the “PBM E-score” value is -0.165. To GCCCGCAA belongs -0.00949. To AAAGGACT belongs -0.127; to ACACGCCA, 0.0889. Turning to ACTCCCGC, the “PBM E-score” value is -0.0164. Turning to ATGTAAAC, the “PBM E-score” value came to 0.203.

On to CGGAGCAA, for which the “PBM E-score” value was determined as 0.0441. To CGGATCTA belongs 0.0466. For the sequence CTCTTACA, the “PBM E-score” value amounted to 0.0444. To ATTGGCGC belongs -0.0385.

With CAAATGTC, the “PBM E-score” value is -0.0915. To TCATTTCA belongs 0.0438. As for CTGAGAAC, the “PBM E-score” value was 0.0541. To AAAGGGCC belongs -0.255; to CTGGGAAG, -0.0869; to CACTCGAC, 0.043. For GGGGTATA the value was 0.0444; for CGGCATTC, 0.0894. GGACAAAA: the “PBM E-score” value amounted to 0.19. For ATGCACCC the value was -0.0275. To AGCCCACA belongs -0.0647; to ACATGGAC, -0.085; to CTTCTGAA, 0.0667.

ATAGGTAG: the “PBM E-score” value was -0.0174. For AAGTTAAA the value was 0.0659; for ACATGGCG, -0.064; for CCGCGACG, -0.212. For TAATCTCA the value was 0.228; for GCTTGCAA, 0.174; for ACGGGCTA, -0.223. Regarding ACGATAAG, the “PBM E-score” value amounted to 0.0474. For AATTCTAC the value was 0.116. For AAAAAGAG, the “PBM E-score” value turned out to be 0.0349. For the sequence CGGGACGA, the “PBM E-score” value is 0.00102. To ACTTAAGC belongs 0.153; to GGAATGGA, 0.00086; to CCAGGGCC, -0.352. AAGTCCAG: the “PBM E-score” value was -0.156. For AGACCGAG the value was -0.079; for GCGAATAA, 0.102; for GAACTTGC, -0.112. For CTTCGATA the value was 0.0174; for GCCGACAC, -0.187; for GAGGATTA, 0.0536. To ACCCGGAG belongs -0.0279.

On to GCAGCACA, for which the “PBM E-score” value is 0.00715. For GGCAGTAA the value was 0.0124; for TGACCGAA, 0.00136.

Take CATAAGAC: the “PBM E-score” value came to 0.222. For ATGGGTAG the value was -0.0956.

Turning to AAACCAAA, the “PBM E-score” value came out at 0.0808. With ACTGTAAA, the “PBM E-score” value was determined as 0.154. For AATGCTGT the value was -0.0772; for CACGCTTA, 0.218. For AGGCTAAT the value was 0.0863; for CATGTACC, -0.175; for GCCTGCCA, -0.0911.

CGGGGGTA: the “PBM E-score” value was -0.25.

Consider AGTGTGCC, for which the “PBM E-score” value was -0.0429. Regarding CCCGAAAA, the “PBM E-score” value stood at 0.0533. To AGCCAGCC belongs -0.221. For GTCAACAA the value was -0.0289; for ACTGTCTG, -0.122; for AAATAGTA, 0.161. To CCAAAACC belongs -0.0268; to CAGATCCA, 0.0698.
